Reference: PMC8748510

Molecular target: T1, endogenous RNF12 (human (endogenous in MDA-MB-231)) (UniProt Q9NVW2)
T1 sequence: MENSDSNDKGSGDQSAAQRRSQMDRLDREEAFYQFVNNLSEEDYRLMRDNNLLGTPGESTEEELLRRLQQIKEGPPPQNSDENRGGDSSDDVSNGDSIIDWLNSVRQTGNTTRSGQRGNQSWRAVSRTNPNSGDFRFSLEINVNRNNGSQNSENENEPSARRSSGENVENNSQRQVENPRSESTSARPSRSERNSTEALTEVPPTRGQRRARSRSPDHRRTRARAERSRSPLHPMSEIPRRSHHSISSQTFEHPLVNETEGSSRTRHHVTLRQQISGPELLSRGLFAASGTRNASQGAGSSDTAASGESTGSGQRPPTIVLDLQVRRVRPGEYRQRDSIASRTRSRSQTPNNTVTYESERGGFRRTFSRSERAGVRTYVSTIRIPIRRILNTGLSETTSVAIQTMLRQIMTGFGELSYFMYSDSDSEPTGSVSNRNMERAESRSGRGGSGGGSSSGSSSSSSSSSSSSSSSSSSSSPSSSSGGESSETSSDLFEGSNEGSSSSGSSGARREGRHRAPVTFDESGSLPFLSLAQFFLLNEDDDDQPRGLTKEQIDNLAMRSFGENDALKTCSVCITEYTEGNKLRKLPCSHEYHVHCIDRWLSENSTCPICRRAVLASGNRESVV
Test: co-IP; endogenous proteins, MDA-MB-231 cell lysates; immunoprecipitation with RNF12 antibody, immunoblotting with an AKT antibody

binding: binds
Substance: endogenous AKT (human (endogenous in MDA-MB-231)) (enzyme)

These are yes or no findings as the source states them, for the method shown. In cells and extracts the contact can be indirect. Binding can be weak; no strength is given.
